# According to the supplement of paper PMC8728848:
# The other results are listed elsewhere or left out.
# B1: Mcg Light Chain Dimer (Homo sapiens), Q6PIK1 (protein)
# chain: MAGFPLLLTLLTHCAGSWGQSLLTQPPSVSGTPGQRVTISCSGSSSNIGINYVYWYQQIPGTAPKLLISTNDQRPSGVPDRFSGSKSGTSASLAIGGLRSEDEAHYYCAAWDDSMSGPGYAFGTGTKVTVLRQPKANPTVTLFPPSSEELQANKATLVCLISDFYPGAVTVAWKADGSPVKAGVETTKPSKQSNNKYAASSYLSLTPEQWKSHRSYSCQVTHEGSTVEKTVAPTECS
# Experiments:
# Test in all cases: glycan array binding signal (z-score within array); higher = stronger binding
# Conditions in all cases: glycan notation: IUPAC condensed, linker removed
# [1] = target: Gal(b1-4)GlcNAc(b1-3)Gal(b1-4)GlcNAc(b1-3)Gal(b1-4)GlcNAc
# How it was run: (§1)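 From the Consortium for Functional Glycomics database, 3228 arrays were curated, keeping only those whose protein sequence was available. Binding is given as a within-array Z-score averaged across arrays sharing a protein sequence and across linkers. Negative Z-scores can be read as non-binding.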
# [2] = target: Gal(b1-4)GlcNAc(b1-3)Gal(b1-4)[Fuc(a1-3)]GlcNAc(b1-3)Gal(b1-4)[Fuc(a1-3)]GlcNAc
# How it was run: as §1
# [3] = target: Gal(b1-4)GlcNAc(b1-3)GalNAc
# How it was run: as §1
# [4] = target: Gal(b1-4)GlcNAc(b1-3)[Gal(b1-4)GlcNAc(b1-6)]Gal(b1-4)GlcNAc
# How it was run: as §1
# [5] = target: Gal(b1-4)GlcNAc(b1-3)[GlcNAc(b1-6)]Gal(b1-4)GlcNAc
# How it was run: as §1
# [6] = target: Gal(b1-4)GlcNAc(b1-6)Gal(b1-4)GlcNAc
# How it was run: as §1
# [7] = target: Gal(b1-4)GlcNAc(b1-6)Gal(b1-4)GlcNAc(b1-6)GalNAc
# How it was run: as §1
# [8] = target: Gal(b1-4)GlcNAc(b1-6)GalNAc
# How it was run: as §1
# [9] = target: Gal(b1-4)GlcNAc(b1-6)[Gal(b1-3)]GalNAc
# How it was run: as §1
# [10] = target: Gal3S(b1-3)GalNAc
# How it was run: as §1
# [11] = target: Gal3S(b1-3)GlcNAc
# How it was run: as §1
# [12] = target: Gal3S(b1-3)[Fuc(a1-4)]GlcNAc
# How it was run: as §1
# [13] = target: Gal3S(b1-4)Glc
# How it was run: as §1
# [14] = target: Gal3S(b1-4)Glc6S
# How it was run: as §1
# [15] = target: Gal3S(b1-4)GlcNAc
# How it was run: as §1
# [16] = target: Gal3S(b1-4)GlcNAc6S
# How it was run: as §1
# [17] = target: Gal3S(b1-4)[Fuc(a1-3)]Glc
# How it was run: as §1
# [18] = target: Gal3S4S(b1-4)GlcNAc
# How it was run: as §1
# [19] = target: Gal3S6S(b1-4)GlcNAc
# How it was run: as §1
# [20] = target: Gal3S6S(b1-4)GlcNAc6S
# How it was run: as §1
# [21] = target: Gal4S(b1-4)GlcNAc
# How it was run: as §1
# [22] = target: Gal4S6S(b1-4)GlcNAc
# How it was run: as §1
# [23] = target: Gal6S(b1-4)Glc
# How it was run: as §1
# [24] = target: Gal6S(b1-4)Glc6S
# How it was run: as §1
# [25] = target: Gal6S(b1-4)GlcNAc
# How it was run: as §1
# [26] = target: Gal6S(b1-4)GlcNAc6S
# How it was run: as §1
# [27] = target: GalNAc(a1-3)Gal
# How it was run: as §1
# [28] = target: GalNAc(a1-3)GalNAc
# How it was run: as §1
# [29] = target: GalNAc(b1-3)Gal
# How it was run: as §1
# [30] = target: GalNAc(b1-3)Gal(a1-4)Gal(b1-4)GlcNAc
# How it was run: as §1
# [31] = target: GalNAc(b1-3)GalNAc
# How it was run: as §1
# [32] = target: GalNAc(b1-4)GlcNAc
# How it was run: as §1
# [33] = target: Glc(a1-4)Glc
# How it was run: as §1
# [34] = target: Glc(a1-6)Glc(a1-6)Glc
# How it was run: as §1
# [35] = target: Glc(b1-4)Glc
# How it was run: as §1
# [36] = target: Glc(b1-6)Glc
# How it was run: as §1
# [37] = target: GlcA(b1-3)Gal
# How it was run: as §1
# [38] = target: GlcA(b1-3)GlcNAc
# How it was run: as §1
# [39] = target: GlcA(b1-6)Gal
# How it was run: as §1
# [40] = target: GlcNAc(a1-3)Gal(b1-4)GlcNAc
# How it was run: as §1
# [41] = target: GlcNAc(a1-6)Gal(b1-4)GlcNAc
# How it was run: as §1
# [42] = target: GlcNAc(b1-2)Gal(b1-3)GalNAc
# How it was run: as §1
# [43] = target: GlcNAc(b1-2)Man(a1-3)[GlcNAc(b1-2)Man(a1-6)]Man(b1-4)GlcNAc(b1-4)GlcNAc
# How it was run: as §1
# [44] = target: GlcNAc(b1-3)Gal
# How it was run: as §1
# [45] = target: GlcNAc(b1-3)Gal(b1-3)GalNAc
# How it was run: as §1
# [46] = target: GlcNAc(b1-3)Gal(b1-4)Glc
# How it was run: as §1
# [47] = target: GlcNAc(b1-3)Gal(b1-4)GlcNAc
# How it was run: as §1
# [48] = target: GlcNAc(b1-3)Gal(b1-4)GlcNAc(b1-3)Gal(b1-4)GlcNAc
# How it was run: as §1
# [49] = target: GlcNAc(b1-3)GalNAc
# How it was run: as §1
# [50] = target: GlcNAc(b1-3)Man
# How it was run: as §1
# [51] = target: GlcNAc(b1-3)[GlcNAc(b1-4)][GlcNAc(b1-6)]GlcNAc
# How it was run: as §1
# [52] = target: GlcNAc(b1-3)[GlcNAc(b1-6)]Gal(b1-4)GlcNAc
# How it was run: as §1
# [53] = target: GlcNAc(b1-3)[GlcNAc(b1-6)]GalNAc
# How it was run: as §1
# [54] = target: GlcNAc(b1-4)Gal(b1-4)GlcNAc
# How it was run: as §1
# [55] = target: GlcNAc(b1-4)GlcNAc
# How it was run: as §1
# [56] = target: GlcNAc(b1-4)GlcNAc(b1-4)GlcNAc
# How it was run: as §1
# [57] = target: GlcNAc(b1-4)GlcNAc(b1-4)GlcNAc(b1-4)GlcNAc(b1-4)GlcNAc
# How it was run: as §1
# [58] = target: GlcNAc(b1-4)GlcNAc(b1-4)GlcNAc(b1-4)GlcNAc(b1-4)GlcNAc(b1-4)GlcNAc
# How it was run: as §1
# [59] = target: GlcNAc(b1-4)[GlcNAc(b1-6)]GalNAc
# How it was run: as §1
# [60] = target: GlcNAc(b1-6)Gal(b1-4)GlcNAc
# How it was run: as §1
# [61] = target: GlcNAc(b1-6)GalNAc
# How it was run: as §1
# [62] = target: GlcNAc3Prop(b1-4)GlcNAc
# How it was run: as §1
# [63] = target: Kdn(a2-3)Gal(b1-3)GlcNAc
# How it was run: as §1
# [64] = target: Kdn(a2-3)Gal(b1-4)GlcNAc
# How it was run: as §1
# [65] = target: Man(a1-2)Man(a1-2)Man(a1-3)Man
# How it was run: as §1
# [66] = target: Man(a1-2)Man(a1-2)Man(a1-6)[Man(a1-3)]Man
# How it was run: as §1
# [67] = target: Man(a1-2)Man(a1-3)Man
# How it was run: as §1
# [68] = target: Man(a1-2)Man(a1-3)[Man(a1-2)Man(a1-6)]Man
# How it was run: as §1
# [69] = target: Man(a1-2)Man(a1-3)[Man(a1-2)Man(a1-6)]Man(a1-6)[Man(a1-2)Man(a1-2)Man(a1-3)]Man
# How it was run: as §1
# [70] = target: Man(a1-2)Man(a1-3)[Man(a1-2)Man(a1-6)]Man(a1-6)[Man(a1-2)Man(a1-2)Man(a1-3)]Man(b1-4)GlcNAc(b1-4)GlcNAc
# How it was run: as §1
# [71] = target: Man(a1-2)Man(a1-3)[Man(a1-6)]Man(a1-6)[Man(a1-2)Man(a1-3)]Man(b1-4)GlcNAc(b1-4)GlcNAc
# How it was run: as §1
# [72] = target: Man(a1-2)Man(a1-6)[Man(a1-3)]Man(a1-6)[Man(a1-2)Man(a1-2)Man(a1-3)]Man
# How it was run: as §1
# [73] = target: Man(a1-2)Man(a1-6)[Man(a1-3)]Man(a1-6)[Man(a1-2)Man(a1-2)Man(a1-3)]Man(b1-4)GlcNAc(b1-4)GlcNAc
# How it was run: as §1
# [74] = target: Man(a1-3)[Man(a1-6)]Man
# How it was run: as §1
binder,measurement,setting,value
B1,glycan array binding signal (z-score),[1],0.916
same,glycan array binding signal (z-score),[2],-0.852
same,glycan array binding signal (z-score),[3],-0.241
same,glycan array binding signal (z-score),[4],-0.825
same,glycan array binding signal (z-score),[5],0.531
same,glycan array binding signal (z-score),[6],0.527
same,glycan array binding signal (z-score),[7],0.421
same,glycan array binding signal (z-score),[8],-1.04
same,glycan array binding signal (z-score),[9],0.016
same,glycan array binding signal (z-score),[10],-0.509
same,glycan array binding signal (z-score),[11],2.2
same,glycan array binding signal (z-score),[12],1.16
same,glycan array binding signal (z-score),[13],-0.54
same,glycan array binding signal (z-score),[14],1.76
same,glycan array binding signal (z-score),[15],0.496
same,glycan array binding signal (z-score),[16],0.368
same,glycan array binding signal (z-score),[17],-0.54
same,glycan array binding signal (z-score),[18],3.63
same,glycan array binding signal (z-score),[19],0.049
same,glycan array binding signal (z-score),[20],5.67
same,glycan array binding signal (z-score),[21],1.6
same,glycan array binding signal (z-score),[22],0.175
same,glycan array binding signal (z-score),[23],0.392
same,glycan array binding signal (z-score),[24],0.257
same,glycan array binding signal (z-score),[25],1.71
same,glycan array binding signal (z-score),[26],0.505
same,glycan array binding signal (z-score),[27],-0.99
same,glycan array binding signal (z-score),[28],0.139
same,glycan array binding signal (z-score),[29],-0.592
same,glycan array binding signal (z-score),[30],-0.745
same,glycan array binding signal (z-score),[31],-1.1
same,glycan array binding signal (z-score),[32],-0.53
same,glycan array binding signal (z-score),[33],-0.366
same,glycan array binding signal (z-score),[34],-0.665
same,glycan array binding signal (z-score),[35],0.064
same,glycan array binding signal (z-score),[36],-1.03
same,glycan array binding signal (z-score),[37],-0.755
same,glycan array binding signal (z-score),[38],0.624
same,glycan array binding signal (z-score),[39],0.71
same,glycan array binding signal (z-score),[40],0.209
same,glycan array binding signal (z-score),[41],-0.811
same,glycan array binding signal (z-score),[42],0.244
same,glycan array binding signal (z-score),[43],-0.111
same,glycan array binding signal (z-score),[44],0.164
same,glycan array binding signal (z-score),[45],-1.09
same,glycan array binding signal (z-score),[46],-0.966
same,glycan array binding signal (z-score),[47],-0.336
same,glycan array binding signal (z-score),[48],0.597
same,glycan array binding signal (z-score),[49],-0.992
same,glycan array binding signal (z-score),[50],-0.948
same,glycan array binding signal (z-score),[51],-0.957
same,glycan array binding signal (z-score),[52],0.137
same,glycan array binding signal (z-score),[53],-0.93
same,glycan array binding signal (z-score),[54],0.335
same,glycan array binding signal (z-score),[55],-0.301
same,glycan array binding signal (z-score),[56],-0.143
same,glycan array binding signal (z-score),[57],0.521
same,glycan array binding signal (z-score),[58],-0.677
same,glycan array binding signal (z-score),[59],-0.665
same,glycan array binding signal (z-score),[60],-0.364
same,glycan array binding signal (z-score),[61],-1.13
same,glycan array binding signal (z-score),[62],0.648
same,glycan array binding signal (z-score),[63],-0.743
same,glycan array binding signal (z-score),[64],0.717
same,glycan array binding signal (z-score),[65],-0.697
same,glycan array binding signal (z-score),[66],0.605
same,glycan array binding signal (z-score),[67],-0.709
same,glycan array binding signal (z-score),[68],0.598
same,glycan array binding signal (z-score),[69],-0.647
same,glycan array binding signal (z-score),[70],0.417
same,glycan array binding signal (z-score),[71],0.7
same,glycan array binding signal (z-score),[72],0.467
same,glycan array binding signal (z-score),[73],-0.89
same,glycan array binding signal (z-score),[74],-1.04

# Another view of part of the listing above.
binder | measurement | setting | value
B1 | glycan array binding signal (z-score) | [56] | -0.143
same | glycan array binding signal (z-score) | [57] | 0.521
